The supplement of paper PMC8612539
Values after ≈ are worked out from the molar mass of the structure shown. This continues a long series; more values of the same kind are listed elsewhere.

Key:
Pasteurella multocida = assay: minimum inhibitory concentration (MIC)
Method: (§1)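 Broth microdilution MIC (Sensititre BOPO7F bovine plate, CLSI methods) of 19 antimicrobials against field isolates of P. multocida, M. haemolytica, H. somni (deep nasopharyngeal swabs) and E. coli, Enterococcus spp. (rectal swabs) from weaned dairy heifers. Incubation 16-24 h at 35 C. MIC is the lowest concentration preventing visible growth. Values with <= or > lie at the tested range limits. Trimethoprim-sulfamethoxazole is given as the trimethoprim component of a 1:19 mixture.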

Mannheimia haemolytica = assay: minimum inhibitory concentration (MIC)
Method: as §1

CNC(C)C1CCC(N)C(OC2C(N)CC(N)C(OC3OCC(C)(O)C(NC)C3O)C2O)O1 (configuration not stated) [Gentamicin]
minimum inhibitory concentration [µg/mL]
Settings | Mannheimia haemolytica | Pasteurella multocida
isolate (source animal id): 3 | 4 (≈ 8.38 µM) | –
isolate (source animal id): 30 | – | 4 (≈ 8.38 µM)
isolate (source animal id): 34 | – | 4 (≈ 8.38 µM)
isolate (source animal id): 36 | – | 4 (≈ 8.38 µM)
isolate (source animal id): 37 | – | 4 (≈ 8.38 µM)
isolate (source animal id): 46 | – | 8 (≈ 16.8 µM)
isolate (source animal id): 48 | – | 8 (≈ 16.8 µM)
isolate (source animal id): 49 | – | 4 (≈ 8.38 µM)
isolate (source animal id): 54 | – | 2 (≈ 4.19 µM)
isolate (source animal id): 55 | – | 2 (≈ 4.19 µM)
isolate (source animal id): 58 | – | 4 (≈ 8.38 µM)
isolate (source animal id): 60 | 4 (≈ 8.38 µM) | 4 (≈ 8.38 µM)
isolate (source animal id): 61 | 2 (≈ 4.19 µM) | 2 (≈ 4.19 µM)
isolate (source animal id): 63 | – | 4 (≈ 8.38 µM)
isolate (source animal id): 64 | 2 (≈ 4.19 µM) | 4 (≈ 8.38 µM)
isolate (source animal id): 65 | 2 (≈ 4.19 µM) | 2 (≈ 4.19 µM)
isolate (source animal id): 66 | 4 (≈ 8.38 µM) | 4 (≈ 8.38 µM)
isolate (source animal id): 67 | 2 (≈ 4.19 µM) | 2 (≈ 4.19 µM)
isolate (source animal id): 68 | 2 (≈ 4.19 µM) | –
isolate (source animal id): 69 | – | 2 (≈ 4.19 µM)
isolate (source animal id): 70 | 16 (≈ 33.5 µM) | –
isolate (source animal id): 72 | 2 (≈ 4.19 µM) | –
isolate (source animal id): 73 | – | 2 (≈ 4.19 µM)
isolate (source animal id): 74 | 2 (≈ 4.19 µM) | –
isolate (source animal id): 75 | – | 2 (≈ 4.19 µM)
isolate (source animal id): 76 | 2 (≈ 4.19 µM) | 2 (≈ 4.19 µM)
isolate (source animal id): 77 | – | 2 (≈ 4.19 µM)
isolate (source animal id): 78 | – | 2 (≈ 4.19 µM)
isolate (source animal id): 80 | 4 (≈ 8.38 µM) | 4 (≈ 8.38 µM)
isolate (source animal id): 82 | 16 (≈ 33.5 µM) | 4 (≈ 8.38 µM)
isolate (source animal id): 83 | 2 (≈ 4.19 µM) | 4 (≈ 8.38 µM)
isolate (source animal id): 84 | 2 (≈ 4.19 µM) | –
isolate (source animal id): 85 | 4 (≈ 8.38 µM) | –
isolate (source animal id): 86 | 4 (≈ 8.38 µM) | –
isolate (source animal id): 87 | 4 (≈ 8.38 µM) | –
isolate (source animal id): 88 | – | 8 (≈ 16.8 µM)
isolate (source animal id): 92 | – | 4 (≈ 8.38 µM)
isolate (source animal id): 94 | – | 4 (≈ 8.38 µM)
isolate (source animal id): 318 | – | 4 (≈ 8.38 µM)
isolate (source animal id): 319 | – | 4 (≈ 8.38 µM)
isolate (source animal id): 320 | – | 4 (≈ 8.38 µM)
isolate (source animal id): 321 | – | 4 (≈ 8.38 µM)
isolate (source animal id): 322 | – | 4 (≈ 8.38 µM)
isolate (source animal id): 324 | – | 4 (≈ 8.38 µM)
isolate (source animal id): 325 | – | 4 (≈ 8.38 µM)
isolate (source animal id): 328 | – | 2 (≈ 4.19 µM)
isolate (source animal id): 330 | – | 2 (≈ 4.19 µM)
isolate (source animal id): 331 | – | 4 (≈ 8.38 µM)
isolate (source animal id): 333 | – | 4 (≈ 8.38 µM)
isolate (source animal id): 336 | – | 2 (≈ 4.19 µM)
isolate (source animal id): 337 | – | 4 (≈ 8.38 µM)
isolate (source animal id): 339 | – | 4 (≈ 8.38 µM)
isolate (source animal id): 340 | – | 4 (≈ 8.38 µM)
isolate (source animal id): 341 | – | 4 (≈ 8.38 µM)

CCN1CCN(c2cc3c(cc2F)c(=O)c(C(=O)O)cn3C2CC2)CC1 [Enrofloxacin]
minimum inhibitory concentration [µg/mL]
Settings | Mannheimia haemolytica | Pasteurella multocida
isolate (source animal id): 3 | 0.5 (≈ 1.39 µM) | –
isolate (source animal id): 30 | – | 1 (≈ 2.78 µM)
isolate (source animal id): 34 | – | 2 (≈ 5.56 µM)
isolate (source animal id): 36 | – | 2 (≈ 5.56 µM)
isolate (source animal id): 37 | – | 2 (≈ 5.56 µM)
isolate (source animal id): 46 | – | ≤ 0.12
isolate (source animal id): 48 | – | 2 (≈ 5.56 µM)
isolate (source animal id): 49 | – | 2 (≈ 5.56 µM)
isolate (source animal id): 54 | – | 1 (≈ 2.78 µM)
isolate (source animal id): 55 | – | 1 (≈ 2.78 µM)
isolate (source animal id): 58 | – | 2 (≈ 5.56 µM)
isolate (source animal id): 60 | 1 (≈ 2.78 µM) | 1 (≈ 2.78 µM)
isolate (source animal id): 61 | > 2 | > 2
isolate (source animal id): 63 | – | 2 (≈ 5.56 µM)
isolate (source animal id): 64 | 0.25 (≈ 0.696 µM) | 2 (≈ 5.56 µM)
isolate (source animal id): 65 | > 2 | > 2
isolate (source animal id): 66 | 0.5 (≈ 1.39 µM) | 2 (≈ 5.56 µM)
isolate (source animal id): 67 | > 2 | 2 (≈ 5.56 µM)
isolate (source animal id): 68 | 0.5 (≈ 1.39 µM) | –
isolate (source animal id): 69 | – | 2 (≈ 5.56 µM)
isolate (source animal id): 70 | > 2 | –
isolate (source animal id): 72 | 0.5 (≈ 1.39 µM) | –
isolate (source animal id): 73 | – | 1 (≈ 2.78 µM)
isolate (source animal id): 74 | > 2 | –
isolate (source animal id): 75 | – | 2 (≈ 5.56 µM)
isolate (source animal id): 76 | 0.5 (≈ 1.39 µM) | 1 (≈ 2.78 µM)
isolate (source animal id): 77 | – | 0.5 (≈ 1.39 µM)
isolate (source animal id): 78 | – | 1 (≈ 2.78 µM)
isolate (source animal id): 80 | 0.5 (≈ 1.39 µM) | 1 (≈ 2.78 µM)
isolate (source animal id): 82 | > 2 | 1 (≈ 2.78 µM)
isolate (source animal id): 83 | ≤ 0.12 | 1 (≈ 2.78 µM)
isolate (source animal id): 84 | 0.5 (≈ 1.39 µM) | –
isolate (source animal id): 85 | 2 (≈ 5.56 µM) | –
isolate (source animal id): 86 | 2 (≈ 5.56 µM) | –
isolate (source animal id): 87 | 2 (≈ 5.56 µM) | –
isolate (source animal id): 88 | – | ≤ 0.12
isolate (source animal id): 92 | – | 0.5 (≈ 1.39 µM)
isolate (source animal id): 94 | – | 2 (≈ 5.56 µM)
isolate (source animal id): 318 | – | ≤ 0.12
isolate (source animal id): 319 | – | ≤ 0.12
isolate (source animal id): 320 | – | 1 (≈ 2.78 µM)
isolate (source animal id): 321 | – | 1 (≈ 2.78 µM)
isolate (source animal id): 322 | – | 1 (≈ 2.78 µM)
isolate (source animal id): 324 | – | 1 (≈ 2.78 µM)
isolate (source animal id): 325 | – | 1 (≈ 2.78 µM)
isolate (source animal id): 328 | – | 1 (≈ 2.78 µM)
isolate (source animal id): 330 | – | 1 (≈ 2.78 µM)
isolate (source animal id): 331 | – | ≤ 0.12
isolate (source animal id): 333 | – | ≤ 0.12
isolate (source animal id): 336 | – | 1 (≈ 2.78 µM)
isolate (source animal id): 337 | – | 1 (≈ 2.78 µM)
isolate (source animal id): 339 | – | 1 (≈ 2.78 µM)
isolate (source animal id): 340 | – | ≤ 0.12
isolate (source animal id): 341 | – | ≤ 0.12

CCC[C@@H]1C[C@@H](C(=O)N[C@@H]([C@H]2O[C@H](SC)[C@H](O)[C@@H](O)[C@H]2O)[C@H](C)Cl)N(C)C1 [Clindamycin]
minimum inhibitory concentration [µg/mL]
Settings | Mannheimia haemolytica | Pasteurella multocida
isolate (source animal id): 3 | 16 (≈ 37.6 µM) | –
isolate (source animal id): 30 | – | > 16
isolate (source animal id): 34 | – | > 16
isolate (source animal id): 36 | – | > 16
isolate (source animal id): 37 | – | > 16
isolate (source animal id): 46 | – | > 16
isolate (source animal id): 48 | – | > 16
isolate (source animal id): 49 | – | > 16
isolate (source animal id): 54 | – | > 16
isolate (source animal id): 55 | – | > 16
isolate (source animal id): 58 | – | > 16
isolate (source animal id): 60 | 16 (≈ 37.6 µM) | > 16
isolate (source animal id): 61 | > 16 | > 16
isolate (source animal id): 63 | – | > 16
isolate (source animal id): 64 | 16 (≈ 37.6 µM) | > 16
isolate (source animal id): 65 | > 16 | > 16
isolate (source animal id): 66 | 16 (≈ 37.6 µM) | > 16
isolate (source animal id): 67 | > 16 | > 16
isolate (source animal id): 68 | 16 (≈ 37.6 µM) | –
isolate (source animal id): 69 | – | > 16
isolate (source animal id): 70 | > 16 | –
isolate (source animal id): 72 | 16 (≈ 37.6 µM) | –
isolate (source animal id): 73 | – | > 16
isolate (source animal id): 74 | > 16 | –
isolate (source animal id): 75 | – | > 16
isolate (source animal id): 76 | 16 (≈ 37.6 µM) | > 16
isolate (source animal id): 77 | – | > 16
isolate (source animal id): 78 | – | > 16
isolate (source animal id): 80 | > 16 | > 16
isolate (source animal id): 82 | > 16 | > 16
isolate (source animal id): 83 | 8 (≈ 18.8 µM) | > 16
isolate (source animal id): 84 | > 16 | –
isolate (source animal id): 85 | 16 (≈ 37.6 µM) | –
isolate (source animal id): 86 | 16 (≈ 37.6 µM) | –
isolate (source animal id): 87 | 16 (≈ 37.6 µM) | –
isolate (source animal id): 88 | – | > 16
isolate (source animal id): 92 | – | > 16
isolate (source animal id): 94 | – | > 16
isolate (source animal id): 318 | – | > 16
isolate (source animal id): 319 | – | > 16
isolate (source animal id): 320 | – | > 16
isolate (source animal id): 321 | – | > 16
isolate (source animal id): 322 | – | > 16
isolate (source animal id): 324 | – | > 16
isolate (source animal id): 325 | – | > 16
isolate (source animal id): 328 | – | > 16
isolate (source animal id): 330 | – | > 16
isolate (source animal id): 331 | – | > 16
isolate (source animal id): 333 | – | > 16
isolate (source animal id): 336 | – | > 16
isolate (source animal id): 337 | – | > 16
isolate (source animal id): 339 | – | > 16
isolate (source animal id): 340 | – | > 16
isolate (source animal id): 341 | – | > 16
